Test results published in PMC11876171.
These are yes or no findings as the source states them, for the method shown. In cells and extracts the contact can be indirect. Some results given as binding are weak or reduced against the parent protein; the word gives no strength.

Amino acid sequences for entries named in this document (tags omitted).
UniProt Q61221: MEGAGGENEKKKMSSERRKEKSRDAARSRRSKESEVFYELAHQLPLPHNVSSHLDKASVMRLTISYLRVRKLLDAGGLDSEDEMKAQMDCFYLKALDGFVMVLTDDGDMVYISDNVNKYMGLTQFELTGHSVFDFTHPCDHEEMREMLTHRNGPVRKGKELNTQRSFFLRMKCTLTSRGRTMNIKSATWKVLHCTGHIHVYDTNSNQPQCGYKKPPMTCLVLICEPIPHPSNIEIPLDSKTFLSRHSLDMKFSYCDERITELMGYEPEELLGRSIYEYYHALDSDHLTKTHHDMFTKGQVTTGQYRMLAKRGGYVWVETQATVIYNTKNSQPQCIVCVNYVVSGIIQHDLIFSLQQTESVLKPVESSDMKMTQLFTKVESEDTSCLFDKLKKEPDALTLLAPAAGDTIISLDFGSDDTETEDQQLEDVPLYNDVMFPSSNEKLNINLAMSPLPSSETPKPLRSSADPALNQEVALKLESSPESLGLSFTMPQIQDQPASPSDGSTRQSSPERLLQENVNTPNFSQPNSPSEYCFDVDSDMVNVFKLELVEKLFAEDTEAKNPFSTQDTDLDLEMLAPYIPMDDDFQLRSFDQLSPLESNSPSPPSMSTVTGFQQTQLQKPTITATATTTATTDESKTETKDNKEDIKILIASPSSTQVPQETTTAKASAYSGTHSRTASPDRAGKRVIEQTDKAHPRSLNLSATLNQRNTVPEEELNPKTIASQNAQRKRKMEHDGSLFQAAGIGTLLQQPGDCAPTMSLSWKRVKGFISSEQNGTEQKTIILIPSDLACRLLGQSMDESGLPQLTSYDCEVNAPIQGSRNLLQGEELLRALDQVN
UniProt P02340: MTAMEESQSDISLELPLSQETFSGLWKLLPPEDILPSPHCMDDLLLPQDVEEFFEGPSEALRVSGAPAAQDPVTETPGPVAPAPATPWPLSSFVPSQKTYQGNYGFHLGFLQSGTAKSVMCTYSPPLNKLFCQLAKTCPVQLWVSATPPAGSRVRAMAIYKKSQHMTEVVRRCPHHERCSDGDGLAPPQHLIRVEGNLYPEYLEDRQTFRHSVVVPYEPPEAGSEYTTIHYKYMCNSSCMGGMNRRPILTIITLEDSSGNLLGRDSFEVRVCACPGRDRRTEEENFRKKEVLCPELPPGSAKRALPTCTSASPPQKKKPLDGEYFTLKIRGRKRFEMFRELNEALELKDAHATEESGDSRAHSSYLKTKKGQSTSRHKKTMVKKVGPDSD

Molecular target: hypoxia-inducible factor-1α (mouse (endogenous in SV40 MES 13)) (UniProt Q61221)
Test: co-IP; anti-HIF-1α antibody (2 μg for 1 mg total protein) added to NP-40 lysates of mesangial cells of each group overnight at 4°C, magnetic beads 1 h at room temperature; Western blot for p53

binding: binds
Substance: p53 (from UniProt P02340 1-390)
